Source: PubChem BioAssay AID720505 (Drosophila RNAi Screening Center, 2013)
The deposit covers about 20,000 reagents; this is an unselected part of those that have a named target and a result. Of all reagents, about 2,100 (10%) are marked active. 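Raw plate signals without normalisation; calls rest on control-based scores that were not deposited; replicate 2 separates called from uncalled poorly.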 Entries without a mark were called inactive. Reagents against one gene are numbered here. Names joined by + are all predicted targets of the reagent. The record does not give: the amount of reagent, the time to read-out.

Assay: 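Genes needed for store-operated calcium entry in fly cells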 (primary screen)
Cell system: Drosophila S2R+ cells
Reagents: long dsRNA against Drosophila genes
Conditions: thapsigargin (2 µM) in calcium-free buffer to empty internal stores, then 2 mM calcium added back
Read-out: 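Fluo-4 signal in 384-well plates read on a FLIPR after thapsigargin (2 µM, calcium-free) store depletion and 2 mM calcium add-back; unnormalised mean endpoint per well; screen run twice, selected wells retested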
Direction: calcium signal and retest calcium signal: higher = more calcium entry after store depletion
Rule for the call: 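Knock-downs counted as hits when calcium entry dropped relative to STIM1 positive and Rho1 negative controls present on each plate; roughly 1500 genes called, with reductions of differing size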
Meaning of the calls: active = called as lowering calcium entry; inactive = not called

The first 4 entries, to show the layout:
target,dsRNA no.,"calcium signal, replicate 1","calcium signal, replicate 2","retest calcium signal, replicate 1","retest calcium signal, replicate 2"
Cyp9h1,1,95.1,204,,
Cht6,1,96.7,78.3,,
Cht6,2,110,108,,
Cht6,3,76.3 (active),93.3,,

The list itself, repeating the preview:
target,dsRNA no.,"calcium signal, replicate 1","calcium signal, replicate 2","retest calcium signal, replicate 1","retest calcium signal, replicate 2"
Cyp9h1,1,95.1,204,,
Cht6,1,96.7,78.3,,
Cht6,2,110,108,,
Cht6,3,76.3 (active),93.3,,
Cht6,4,79.7,95,,
Noa36,1,105,135,,
Unc50,1,149,180,,
mTTF,1,123,107,,
AGO3,1,73.6,92.5,,
CG14893,1,114,116,,
Rga + asRNA:ASTR,1,152,172,,
Mlc2,1,109,189,,
Nna1,1,4924 (active),88.5,90.8,108
Nna1,2,157,137,,
Nna1,3,69.7 (active),94.4,,
Ehbp1,1,144,79.7,,
CG6695,1,210,243,,
CG12093,1,73.4 (active),146,,
CG31549,1,187,97.4,,
BuGZ,1,98.3,126,,
BuGZ,2,83.5,98.9,,
CG42562,1,140,104,,
CG31233,1,164,149,,
ver,1,104,99.4,,
CG15136,1,113,150,,
CG40198,1,91.2,128,,
CG4025,1,122,123,,
GCC185,1,203,75.9,,
dlg1,1,78.5,98.3,,
dlg1,2,133,78.7,,
lncRNA:CR42862 + CG33229,1,156,111,,
Pop5,1,79.6,132,,
Helz,1,122,103,,
Zcchc7,1,106,104,,
M1BP,1,86.6,122,,
ppk13,1,150,90.6,,
CG7457,1,71.2,85.9,,
Gapvd1,1,57.5 (active),122,,
CG3880,1,171,176,,
CG3880,2,229,149,,
CG14635,1,101,157,,
lili,1,176,173,,
CG11109,1,161,94.7,,
shot,1,86,117,,
shot,2,124,151,,
shot,3,216,190,,
Cth,1,80 (active),105,,
CG42240,1,102,134,78.1,90.6
Atx-1,1,227,160,,
Sodh2,1,164,89.5,,
galla-1,1,71.9,101,,
Mur29B,1,174,120,,
Mur29B,2,153,165,,
Rnmt,1,74.2,88.2,,
Stacl,1,68.2 (active),126,,
Stacl,2,95.1,162,,
Stacl,3,104,142,,
Stacl,4,111,206,,
Stacl,5,105,88.2,71,107
Stacl,6,125,158,,
Stacl,7,106,77.9,,
Or42a,1,230,204,,
Tengl3,1,124,225,,
CG9727,1,119,88.7,,
CG7856,1,155,184,,
asf1,1,98.1,101,,
scb,1,133,147,,
scb,2,124,166,,
yellow-g2,1,60.7 (active),75.3,,
CG11356,1,112,111,,
CG11349,1,80,63,,
Sod3,1,166,120,,
Srlp,1,80.6 (active),104,,
AP-1-2beta,1,57.7 (active),95.9,,
DIP1,1,172,82.8,95.9,96.8
CG31875,1,63.7,136,,
trp,1,163,144,,
Cad74A,1,80.8,167,,
eIF4B,1,93.8,100,,
sima,1,221,178,,
sima,2,127,156,,
Picot,1,116,81.5,,
CG14971,1,95.3,103,,
ABCB7,1,112,90.5,,
CG16710,1,74.4,88.2,,
Sas-4,1,94.8,147,,
mtTFB2,1,57.1 (active),101,,
Nhe2,1,169,89.7,,
Nhe2,2,68.7,162,,
Nplp2,1,89.5,114,,
CG31769,1,69.3 (active),78.1,,
CG13630,1,232,266,,
TwdlQ,1,108,95.7,,
TwdlQ,2,179,142,,
TwdlW,1,154,145,,
salto,1,198,203,,
twit,1,91.4,96.8,,
CG6610,1,109,44.4,,
dwg,1,114,169,,
CG18266,1,105,161,,
Bet3,1,82,97.3,,
SmF,1,66.7 (active),87.2,,
CG17048,1,122,178,,
Mes2,1,66.6 (active),143,126,127
Vps51,1,67.4 (active),128,,
mbf1,1,85.3,122,,
